Structures were worked out from names or drawings and are uncertain.
Key:
Human CCR3 [1] = target: T1, Human CCR3 (Homo sapiens, UniProt P51677); assay: Receptor binding assay (RBA), [125I]-eotaxin on human CCR3-transformed K562 cells; details: read-out: Activity grade CCR3, compounds of about 40 to 90% purity, tested form: 2 HCl
Protocol: [Determination of IC50 Values of Compounds in Receptor Binding Assay]
(§1) • Human CCR3-transformed K562 cells were used. The cloned CCR3 cDNA was constructed with pcDNA3 vector and transfected into a K562 cell line. The human CCR3-transformed K562 cells were maintained in RPMI-1640 (Cat.#22400-089, Life Technologies) supplemented with 10% FCS (Cat.#A-1115-L, Hyclone), 55 μM 2-mercaptoethanol (Cat.#21985-023, Life Technologies), 1 mM sodium pyruvate (Cat.#11360-070, Life Technologies), 100 units/ml of penicillin G and 100 μg/ml of streptomycin (Cat.#15140-122, Life Technologies), and 0.4 mg/ml of Geneticin (Cat.#10131-035, Life Technologies) (hereinafter called “culture medium”). Before the receptor binding assay, cells were pretreated with 5 mM sodium butyrate (Cat.#193-01522, Wako)-containing the culture medium (2×10^5 cells/ml) for 20-24 hours to increase the expression of CCR3. […] The non-specific binding was determined by parallel incubation in the presence of 500 nM of non-labeled eotaxin (Cat.#23209, Genzyme Techne). The radioactivities remained on the filter were measured by liquid scintillation counter (TopCount™, Packard) after an addition of 45 μl/well of scintillant (Microscint20, Cat.#6013621, Packard). The inhibition percent at each concentration of compound was calculated, and IC50 values were determined from the inhibition curve. […]

By UniProt entry, the sequences of proteins in these tests, tags left out.
UniProt P51677, whole entry: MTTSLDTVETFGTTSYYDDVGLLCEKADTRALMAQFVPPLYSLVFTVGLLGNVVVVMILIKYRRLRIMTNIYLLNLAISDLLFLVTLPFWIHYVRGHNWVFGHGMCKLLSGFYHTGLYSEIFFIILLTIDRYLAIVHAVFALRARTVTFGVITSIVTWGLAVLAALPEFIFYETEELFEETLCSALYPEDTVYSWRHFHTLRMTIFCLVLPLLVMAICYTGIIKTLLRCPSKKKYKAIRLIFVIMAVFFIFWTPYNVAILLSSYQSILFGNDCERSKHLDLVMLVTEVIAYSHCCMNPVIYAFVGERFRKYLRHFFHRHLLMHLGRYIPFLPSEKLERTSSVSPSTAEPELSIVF

Human CCR3 [2] = target: T1, Human CCR3; assay: Calcium mobilization assay (Ca2+), eotaxin-stimulated human CCR3-transformed K562 cells; details: read-out: Activity grade IC50, compounds of about 40 to 90% purity, tested form: 2 HCl
Protocol: as §1

For N#Cc1ccc(Oc2cc(Cl)cc(Cl)c2)c(S(=O)(=O)N2CCNCC2CN)c1 (centres unmarked), the IC50 (Human CCR3 [1]) was under 100 nM and the IC50 (Human CCR3 [2]) was under 100 nM.

From patent US9206186B2, “2-phenoxy- and 2-phenylsulfonamide derivatives with CCR3 antagonistic activity for the treatment of inflammatory or immunological disorders” (AXIKIN PHARMACEUTICALS, INC., priority 2003, dated 2015)
